Data taken from patent US4064254A, “Substituted piperidines therapeutic process and compositions” (Mead Johnson & Company, priority 1976, dated 1977).
In brackets after ≈: the same amount, converted by molar mass.

Test system: serotonin (rat uterus)
Assay: antiserotonin activity in the rat uterus (spasmogenic effect of serotonin)
Assay type: cell-based
Details: rat uterine horn, 30° C., 0.4 microgram per milliliter of serotonin; read-out: IC50 (decrease of spasmogenic effect of serotonin by 50%)
Method: According to this test one of the uterine horns of a rat uterus is suspended in oxygenated salt solution at 30° C. The contractions of this tissue are then recorded and varying concentrations of the test compound introduced into the bath in order to determine the concentration that would decrease the spasmogenic effect of 0.4 microgram per milliliter of serotonin by 50%. This value is designated the IC50.

CC[C@@H](CO)NC(=O)[C@@H]1C=C2c3cccc4c3c(cn4C)C[C@H]2N(C)C1 [methysergide, reference compound]
IC50: 2.5 ng/mL (≈ 7.07 nM)
